Measured values taken from paper PMC9940370.
No constants are given. Whether binding was seen depends on the method and setting. In cells and extracts the contact can be indirect. Some results given as binding are weak or reduced against the parent protein; the word gives no strength. Tags and fused reporters may be left off the sequences shown.

Amino acid sequences for entries named in this document (tags omitted).
UniProt P07355: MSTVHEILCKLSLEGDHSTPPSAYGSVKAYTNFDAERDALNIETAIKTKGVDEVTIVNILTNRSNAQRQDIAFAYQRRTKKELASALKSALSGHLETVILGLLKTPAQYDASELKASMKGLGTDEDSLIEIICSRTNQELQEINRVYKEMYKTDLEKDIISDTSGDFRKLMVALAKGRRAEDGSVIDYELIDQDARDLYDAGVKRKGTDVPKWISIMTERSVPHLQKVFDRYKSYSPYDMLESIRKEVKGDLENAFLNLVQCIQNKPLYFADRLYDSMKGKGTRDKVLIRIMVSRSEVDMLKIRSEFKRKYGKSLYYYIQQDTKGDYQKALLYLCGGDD

Biological target: Flag-tagged ANXA2 (Flag-ANXA2) (UniProt P07355)
Test: co-IP; Flag immunoprecipitation: cell lysate (IP lysis buffer, protease inhibitors) incubated with anti-flag M2 affinity gel at 4 °C overnight, eluted with 3 × flag peptides, western blot

B1: GFP-tagged AQP1 (GFP-AQP1) (protein, UniProt P29972-1 1-269)
chain: MASEFKKKLFWRAVVAEFLATTLFVFISIGSALGFKYPVGNNQTAVQDNVKVSLAFGLSIATLAQSVGHISGAHLNPAVTLGLLLSCQISIFRALMYIIAQCVGAIVATAILSGITSSLTGNSLGRNDLADGVNSGQGLGIEIIGTLQLVLCVLATTDRRRRDLGGSAPLAIGLSVALGHLLAIDYTGCGINPARSFGSAVITHNFSNHWIFWVGPFIGGALAVLIYDFILAPRSSDLTDRVKVWTSGQVEEYDLDADDINSRVEMKPK
For B1, the binding was “binds”.
